In doi:10.1101/2022.05.11.491551 one finds binding data, which are given here for ten molecules.

Sequences of proteins named here, by UniProt entry; tags and fusion partners are left off. A change or cut given only in a name is not applied to a line headed by its entry.
UniProt P48578, whole entry: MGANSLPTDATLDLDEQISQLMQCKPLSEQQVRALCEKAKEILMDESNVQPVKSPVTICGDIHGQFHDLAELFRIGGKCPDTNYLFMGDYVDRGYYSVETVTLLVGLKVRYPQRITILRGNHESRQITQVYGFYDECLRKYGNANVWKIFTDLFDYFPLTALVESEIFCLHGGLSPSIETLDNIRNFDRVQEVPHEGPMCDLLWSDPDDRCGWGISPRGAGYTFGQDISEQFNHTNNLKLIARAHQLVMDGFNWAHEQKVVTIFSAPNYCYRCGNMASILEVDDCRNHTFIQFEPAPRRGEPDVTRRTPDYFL

Where a chain is given by its changes, count along the chain named. Names may count otherwise. Like-named read-outs stand apart in the source and are kept apart here. Results are given in words; binding and its absence hold for the method and conditions named. Binding seen in cells or lysates may run through a third protein. Some entries that bind do so weakly or less than the wild type. Where a sequence is shown, tags or fusion partners need not be part of it.

Assay in all cases: co-IP
For assay [1], the target named is T1, A2-FLAG-GFP expressed in Arabidopsis (Arabidopsis thaliana) (UniProt Q38950).
T1 sequence: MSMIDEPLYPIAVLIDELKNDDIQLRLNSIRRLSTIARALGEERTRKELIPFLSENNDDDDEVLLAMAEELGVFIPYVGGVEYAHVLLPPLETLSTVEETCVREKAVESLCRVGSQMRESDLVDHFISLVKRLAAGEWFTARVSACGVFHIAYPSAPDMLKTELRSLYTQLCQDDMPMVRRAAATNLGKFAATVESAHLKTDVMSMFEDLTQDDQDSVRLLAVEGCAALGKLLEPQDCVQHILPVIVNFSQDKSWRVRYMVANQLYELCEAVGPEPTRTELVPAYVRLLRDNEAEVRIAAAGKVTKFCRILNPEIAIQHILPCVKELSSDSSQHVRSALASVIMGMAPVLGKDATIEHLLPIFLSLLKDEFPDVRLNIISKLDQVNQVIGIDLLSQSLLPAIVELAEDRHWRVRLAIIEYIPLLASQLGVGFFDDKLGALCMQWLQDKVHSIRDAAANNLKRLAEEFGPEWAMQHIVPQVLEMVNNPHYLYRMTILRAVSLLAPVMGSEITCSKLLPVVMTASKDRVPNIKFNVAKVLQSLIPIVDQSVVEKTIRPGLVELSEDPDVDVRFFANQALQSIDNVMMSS

The target in assay [2] is T1, A2-FLAG-GFP expressed in Arabidopsis (Arabidopsis thaliana). This is another data set of the same source.
In assay [3] the target is T2, A2-FLAG-GFP expressed in N. benthamiana leaves (Arabidopsis thaliana) (UniProt Q38950).
T2 sequence: T1 sequence

The target in assay [4] is T3, EIR1 transiently expressed in Arabidopsis protoplasts (Arabidopsis thaliana) (UniProt Q9LU77).
T3 sequence: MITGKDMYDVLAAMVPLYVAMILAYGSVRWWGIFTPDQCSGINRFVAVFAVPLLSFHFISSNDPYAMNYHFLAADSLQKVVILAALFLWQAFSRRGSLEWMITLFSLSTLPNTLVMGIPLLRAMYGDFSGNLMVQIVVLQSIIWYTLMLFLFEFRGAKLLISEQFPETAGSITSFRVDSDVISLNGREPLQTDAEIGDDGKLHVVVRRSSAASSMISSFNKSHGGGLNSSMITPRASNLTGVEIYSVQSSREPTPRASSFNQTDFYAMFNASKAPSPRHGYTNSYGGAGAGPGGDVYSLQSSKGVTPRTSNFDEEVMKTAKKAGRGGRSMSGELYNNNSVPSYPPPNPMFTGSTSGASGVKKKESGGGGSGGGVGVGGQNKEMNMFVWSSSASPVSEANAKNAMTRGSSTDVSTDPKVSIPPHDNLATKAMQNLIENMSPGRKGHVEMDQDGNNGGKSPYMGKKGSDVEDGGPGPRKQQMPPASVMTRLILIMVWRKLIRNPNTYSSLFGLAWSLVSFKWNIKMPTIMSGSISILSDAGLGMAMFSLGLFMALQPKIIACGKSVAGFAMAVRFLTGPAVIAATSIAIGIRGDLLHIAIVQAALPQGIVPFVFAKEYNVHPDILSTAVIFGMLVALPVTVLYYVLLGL

In assay [5] the target is T4, EIR1, endogenous in Arabidopsis roots (Arabidopsis thaliana (endogenous in roots of seedlings)) (UniProt Q9LU77).
T4 sequence: T3 sequence

Assay [6] has as its target T1, A2-FLAG-GFP expressed in Arabidopsis (Arabidopsis thaliana). This is another data set of the same source.
In assay [7] the target is C4-YFP-HA expressed in Arabidopsis (Arabidopsis thaliana) (UniProt P48578).
For assay [8] the target is unchanged. The source holds these as a separate data set.
For assay [9] the target is unchanged. The source holds these as a separate data set.
In assay [10] the target is C4-YFP-HA expressed in N. benthamiana leaves (Arabidopsis thaliana) (UniProt P48578).

For “C4-YFP-HA expressed in Arabidopsis (from UniProt P48578 1-313) (enzyme)”, the binding entry in assay [1] and in assay [2] was “binds” throughout.

For “C4-YFP-HA expressed in N. benthamiana leaves (from UniProt P48578 1-313) (enzyme)”, the binding result in assay [3] is “binds”.

B1: A2-FLAG-GFP expressed in Arabidopsis (protein, UniProt Q38950 1-587)
chain: T1 sequence
Take B1: the binding result in assay [4] and in assay [5] was “binds” in each case.

B2: EIR1 transiently expressed in Arabidopsis protoplasts (protein, UniProt Q9LU77 1-647)
chain: T3 sequence
As to B2, the binding result in [6] and in [2] was “binds” each time.

B3: Bβ-Myc expressed in Arabidopsis (protein, UniProt Q39247 1-501)
chain: MNGGDDAATSGPPPSLEWRFSQVFGERTAGEEVQEVDIISAIEFDKSGDHLATGDRGGRVVLFERTDTKDHGGSRKDLEQTDYPVRHPEFRYKTEFQSHEPEFDYLKSLEIEEKINKIRWCQPANGALFLLSTNDKTIKYWKVQEKKIKKISEMNIDPSESSNIPPQLVTNGLPADKGHDYLSKDFSFPPGGIPSLRLPVVVTSQETNLVARCRRVYAHAHDYHINSISNSSDGETFISADDLRVNLWNLEISNQSFNIVDVKPTNMEDLTEVITSAEFHPIHCNMLAYSSSKGSIRLIDMRQSALCDSHTKLFEEPEAPGSRSFFTEIIASISDIKFSKDGRYILSRDYMTLKLWDINMDSGPVASYQVHEHLRPRLCDLYENDSIFDKFECCLSGDGLRVATGSYSNLFRVFGASQGSTEAATLEASKNPMRRQIQTPARPSRSIGSMTRVVRRGSESPGTEANGNAYDFTTKLLHMAWHPTENSIACAAANSLYMYYA
As for B3, the binding result in assay [7], in assay [8], in assay [9] and in assay [2] was “binds” in each case.

B4: Bβ-Myc expressed in N. benthamiana leaves (protein, UniProt Q39247 1-501)
chain: B3 chain
Take B4: in assay [10], the binding result is given as “binds”.

B5: Bβ^S460A-Myc expressed in Arabidopsis protoplasts (protein, UniProt Q39247 1-501)
chain: B3 chain with S460A
In the case of B5, the binding entry in assay [8] and in assay [2] was “binds” in each case.

B6: Bβ^S460A-Myc expressed in N. benthamiana leaves (protein, UniProt Q39247 1-501)
chain: B3 chain with S460A
As to B6, the binding result in assay [10] was “binds”.

B7: Bβ^S460E-Myc expressed in Arabidopsis protoplasts (protein, UniProt Q39247 1-501)
chain: B3 chain with S460E
For B7, the binding result in assay [2] is listed as “binds”.

B8: Bβ^S460E-Myc expressed in N. benthamiana leaves (protein, UniProt Q39247 1-501)
chain: B3 chain with S460E
Take B8: the binding result in assay [10] was “no binding”.
